{"source": "patent US11130793B2", "about": "(Zealand Pharma A/S, priority 2016, dated 2021)", "key": {"[1]": {"test": "general procedure: Fmoc solid-phase peptide synthesis; TentaGel (TentaGel S PHB Asp(tBu)Fmoc, 0.23 mmol/g)", "settings": "whole synthesis, analytical HPLC and MS"}, "[2]": {"test": "general procedure: Fmoc solid-phase peptide synthesis; TentaGel S PHB Asp(tBu)Fmoc", "settings": "whole synthesis, scale 1.19 g; 0.23 mmol/g"}}, "note": "Square brackets hold non-standard residues; d marks the D form. Aib = CC(C)(N)C(=O)O", "data": [{"substance": "H-H[Aib]EGSFTSELATILDEQAARDFIAWLIYHKITD-OH", "values": [{"measurement": "crude purity (method not given)", "setting": "[1]", "value": "˜30%"}, {"measurement": "final HPLC purity", "setting": "[1]", "value": 84, "unit": "%"}, {"measurement": "crude mass", "setting": "[2]", "value": 750, "unit": "mg"}]}]}
